These results are taken from patent US8957019B2 (priority 2011, dated 2015).

The nature of series [1]: general procedure: Fmoc solid-phase peptide synthesis; Wang resin; DIC/HOBT, DMAP. Conditions: whole synthesis, scale of the general procedure 0.04 mol.
Series [2] can be described thus: general procedure: Fmoc solid-phase peptide synthesis; Wang resin (Tianjin Nankai Synthesis Technology Co., Ltd.); DIC/HOBT, DMAP. Conditions: whole synthesis, HPLC normalization method, scale of the general procedure 0.04 mol.

Ends that are not written are not given here.

Take GAGPHG-OH: in series [1], the isolated yield was determined as 20.5%. Besides, the “final HPLC purity” value in series [2] came to 99.0%.

For GAGPHGG-OH, in series [1], the isolated yield is listed as 15.5%. The “final HPLC purity” value in series [2] is given as 99.0%.
